The list shows a part of the results.

From PMC7819943, “Rice protein-binding microarrays: a tool to detect cis-acting elements near promoter regions in rice” come the findings set out here.

The assay has as its target T1, OsSMF1 (Oryza sativa, UniProt Q6ZLB0 1-436).
T1 sequence: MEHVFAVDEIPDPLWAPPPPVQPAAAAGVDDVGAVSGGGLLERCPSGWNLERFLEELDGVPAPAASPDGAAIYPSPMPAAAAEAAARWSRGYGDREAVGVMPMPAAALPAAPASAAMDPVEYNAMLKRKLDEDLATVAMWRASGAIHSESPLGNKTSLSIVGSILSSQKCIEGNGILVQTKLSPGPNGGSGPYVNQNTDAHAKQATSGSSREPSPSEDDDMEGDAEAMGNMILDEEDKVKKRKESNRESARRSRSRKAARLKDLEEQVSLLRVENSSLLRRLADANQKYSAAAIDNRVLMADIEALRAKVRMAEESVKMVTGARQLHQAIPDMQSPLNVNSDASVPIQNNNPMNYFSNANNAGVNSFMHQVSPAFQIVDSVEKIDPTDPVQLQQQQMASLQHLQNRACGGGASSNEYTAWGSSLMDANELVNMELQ
The assay can be described thus: protein-binding microarray (RPBM); PBS, 2% BSA, 51.3 ng/ul salmon testes DNA, 50 uM zinc acetate, 200 nM TF, 25 C, 1 h; high values mean tight binding. The settings on record: protein: recombinant; tags: N-terminal polyhistidine and DsRed monomer fusion (pET32a); chain copies: 2; label: CyDye5-dUTP incorporated in the synthesized complementary strand; 3' TTTTT single-stranded linker to array surface; dsDNA, one strand shown. Put shortly: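 A custom Agilent array was converted to double-stranded form by primer extension with Cy5-dUTP and blocked with 2% BSA. Protein at 200 nM in PBS with 2% BSA, salmon testes DNA and 50 µM zinc acetate was applied for 1 h at 25 °C, followed by washing. The proteins were polyhistidine–DsRed N-terminal fusions of transcription factors, expressed in E. coli BL21-CodonPlus and Ni–NTA-purified. The binding signal is per-feature fluorescence intensity (arbitrary units) from an Axon 4000B scanner.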
For the sequence “AAATTTATTGTTTGGCTGGAAGACGTGGGGTTTTAAGAGGCGGAGTCACCTAGTGCAG”, the binding signal was 3280 fluorescence intensity (a.u.).

On to “AAGCTAAAAGGGGATTTATACTTGAGATGGTGTGGTCACTCGGAGTCACCTAGTGCAG”, for which the binding signal is 3620 fluorescence intensity (a.u.).

In the case of “GCGCACGCGAAATCCGGCCGACGACGACGACGTGACGTCACGGAGTCACCTAGTGCAG”, the binding signal is 11000 fluorescence intensity (a.u.).

As for “GCTTGATCATCGGCCTCAACACCCTGCATATGTGTATTCTCGGAGTCACCTAGTGCAG”, the binding signal was 3730 fluorescence intensity (a.u.).

For the sequence “ACTTGTGGTATGTTATGCGGTAGTCATCCAAACAATACACCGGAGTCACCTAGTGCAG”, the binding signal was 7080 fluorescence intensity (a.u.).

Turning to “GGCGAGTGTTCAAAAGCAAAGAGGCCACAATGTCGTATCTCGGAGTCACCTAGTGCAG”, the binding signal was 3410 fluorescence intensity (a.u.).

“CATCCTGGACTGGACTGGATTCTTCTTCCCTTCCCCAGCGCGGAGTCACCTAGTGCAG”: the binding signal is 3590 fluorescence intensity (a.u.).

As for “CTGTATATATATAGCACCTGCAACGAGCCAGGATCGATCACGGAGTCACCTAGTGCAG”, the binding signal is 3230 fluorescence intensity (a.u.).

Consider “ACTTTCCTCCACTATTGCTCGACTGAGCCACGCTGATGGCCGGAGTCACCTAGTGCAG”, for which the binding signal was 3320 fluorescence intensity (a.u.).

As for “GAAATATCCCCTTGTCATCTGAAGCATATCCTGCTGGGTTCGGAGTCACCTAGTGCAG”, the binding signal was 5540 fluorescence intensity (a.u.).

For “GGCCCCACGTACCATCCTACCCCACCTGTCAGCGTGCGTACGGAGTCACCTAGTGCAG”, the binding signal was 5120 fluorescence intensity (a.u.).

In the case of “CCGCTGAGCCTGAGTCTCCTGGTCCACGTACACCCGTGGACGGAGTCACCTAGTGCAG”, the binding signal was 6550 fluorescence intensity (a.u.).

As to “AATGGGATAGGCGCTTCCCGTGGGCGATGACGCCTTTCGCCGGAGTCACCTAGTGCAG”, the binding signal was 3580 fluorescence intensity (a.u.).

Consider “ACGGCATCGATCGATCGCGGGCGACGTGGCTGAGTGGCGGCGGAGTCACCTAGTGCAG”, for which the binding signal is 6420 fluorescence intensity (a.u.).

On to “CGGTTGCTGCTGAAGCTTACCAGACTTGTCCCAAGTCTGACGGAGTCACCTAGTGCAG”, for which the binding signal was 3960 fluorescence intensity (a.u.).

“TCCTTGCTCGCGAATCCACTCGCGCGTGCGTGGGCCCCACCGGAGTCACCTAGTGCAG”: the binding signal is 3310 fluorescence intensity (a.u.).

“GGAGCTATTAAGAAGCTTACGTGGAGGAGAGATGTAATAACGGAGTCACCTAGTGCAG”: the binding signal was 3400 fluorescence intensity (a.u.).

Regarding “TGCGCGCCTTGGCCTCTCTTCTGTCACCGCGATGTCTCGCCGGAGTCACCTAGTGCAG”, the binding signal is 3660 fluorescence intensity (a.u.).

Consider “CGTGGTCTCTGAACCCGCGCGCGCGTGCCACCCGCGCATGCGGAGTCACCTAGTGCAG”, for which the binding signal is 3180 fluorescence intensity (a.u.).

As for “AGTTACAACTACTCGATCAGCATCGCCATTGCTGCATCACCGGAGTCACCTAGTGCAG”, the binding signal is 4060 fluorescence intensity (a.u.).

In the case of “ACTCCTCGGATAGGCGATGGCGGCCGCGGTCACCGCGCCACGGAGTCACCTAGTGCAG”, the binding signal was 3370 fluorescence intensity (a.u.).

As for “ACGGAGGGAGGAGGGAGTATTAATATTTAGGGCATGTTTACGGAGTCACCTAGTGCAG”, the binding signal was 30800 fluorescence intensity (a.u.).

Consider “AAATCGTCGAGGATTTCTAGCCCCAGCTGGGGCCGTGACGCGGAGTCACCTAGTGCAG”, for which the binding signal is 4330 fluorescence intensity (a.u.).

Take “CGCCTACACCTTTGCCACGCAGCCCAAAACGAGTCCACCTCGGAGTCACCTAGTGCAG”: the binding signal was 7650 fluorescence intensity (a.u.).

As for “GTACTGCACGGTAGTATACACGTAAGCCCCAAGTAATTACCGGAGTCACCTAGTGCAG”, the binding signal is 9470 fluorescence intensity (a.u.).

As for “ACCACCACGGACATCGTCTTACCACCAAGCTGACTCCCGGCGGAGTCACCTAGTGCAG”, the binding signal was 3890 fluorescence intensity (a.u.).

For “AGAGGTGTGGGAATTCCGTGGCAACTAATCTCATGGCCCCCGGAGTCACCTAGTGCAG”, the binding signal is 3360 fluorescence intensity (a.u.).

As for “GGTGGTGTTGACAGCCCAAGGCCCAAGTGTCACACGCCTTCGGAGTCACCTAGTGCAG”, the binding signal is 3990 fluorescence intensity (a.u.).

As to “TTGCTGTGTTGGCTAGTGATTCTTCTTCTTCTTACCCAAGCGGAGTCACCTAGTGCAG”, the binding signal was 4100 fluorescence intensity (a.u.).

Turning to “AAGAGGAGAGGGAAGAAGACAGGAGAAAGAAGGAAGAAAACGGAGTCACCTAGTGCAG”, the binding signal is 29300 fluorescence intensity (a.u.).

Regarding “ATATATTCTATGTGGTCTGCCCACACGCAAGCATGAGCTCCGGAGTCACCTAGTGCAG”, the binding signal was 3740 fluorescence intensity (a.u.).

For the sequence “AGCTGCATGAATCAGCAAGAACGCCAGGGCCGCTGTGCCGCGGAGTCACCTAGTGCAG”, the binding signal is 3780 fluorescence intensity (a.u.).

In the case of “TGTTTCCCCATATATACTTCCACTTATCAGCAGTGTGATCCGGAGTCACCTAGTGCAG”, the binding signal was 3300 fluorescence intensity (a.u.).

Turning to “ATTATAGCGACCTTATCCTCTCCACCGTCCACGCGCGAGCCGGAGTCACCTAGTGCAG”, the binding signal was 3330 fluorescence intensity (a.u.).

Consider “TGGCTCTCGTACGTAGGTGATGTGTATATATGTATATGTTCGGAGTCACCTAGTGCAG”, for which the binding signal is 5190 fluorescence intensity (a.u.).

Regarding “GCCACCAAGTAAATCGTGACTCATCTTACCAATCAACGACCGGAGTCACCTAGTGCAG”, the binding signal is 15800 fluorescence intensity (a.u.).

In the case of “GCCTTCGCTCTTCGTCGGGTCAGCTCCTGCCTTCCAAAGTCGGAGTCACCTAGTGCAG”, the binding signal is 3360 fluorescence intensity (a.u.).

On to “TCCAGTGGCGGTTACGTAAACGCCTGGCCTCCTGTTATTCCGGAGTCACCTAGTGCAG”, for which the binding signal was 3380 fluorescence intensity (a.u.).

Take “ACCCGTCACCAACCTAGCTCGCGAGACAGCTCATCATTTGCGGAGTCACCTAGTGCAG”: the binding signal is 5230 fluorescence intensity (a.u.).

In the case of “GCCAGACCGCCCACATACCTGTGGTCTGACCGGCCCTGTGCGGAGTCACCTAGTGCAG”, the binding signal was 3170 fluorescence intensity (a.u.).

Consider “AGGGAGAAGAGATGGGCGACTGACATGACATATGACATATCGGAGTCACCTAGTGCAG”, for which the binding signal is 3700 fluorescence intensity (a.u.).

On to “GCTTAAGTTTTAACCATTCCTGACACGTTTAACAGCGAATCGGAGTCACCTAGTGCAG”, for which the binding signal is 4520 fluorescence intensity (a.u.).
